According to the supplement of paper PMC10849652:
This is one part of the list.

The chains behind the UniProt entries cited, without tags or fusion partners. Where a name states a change or a piece, a line headed by the entry shows the natural chain unless it says otherwise.
UniProt Q2TAL8: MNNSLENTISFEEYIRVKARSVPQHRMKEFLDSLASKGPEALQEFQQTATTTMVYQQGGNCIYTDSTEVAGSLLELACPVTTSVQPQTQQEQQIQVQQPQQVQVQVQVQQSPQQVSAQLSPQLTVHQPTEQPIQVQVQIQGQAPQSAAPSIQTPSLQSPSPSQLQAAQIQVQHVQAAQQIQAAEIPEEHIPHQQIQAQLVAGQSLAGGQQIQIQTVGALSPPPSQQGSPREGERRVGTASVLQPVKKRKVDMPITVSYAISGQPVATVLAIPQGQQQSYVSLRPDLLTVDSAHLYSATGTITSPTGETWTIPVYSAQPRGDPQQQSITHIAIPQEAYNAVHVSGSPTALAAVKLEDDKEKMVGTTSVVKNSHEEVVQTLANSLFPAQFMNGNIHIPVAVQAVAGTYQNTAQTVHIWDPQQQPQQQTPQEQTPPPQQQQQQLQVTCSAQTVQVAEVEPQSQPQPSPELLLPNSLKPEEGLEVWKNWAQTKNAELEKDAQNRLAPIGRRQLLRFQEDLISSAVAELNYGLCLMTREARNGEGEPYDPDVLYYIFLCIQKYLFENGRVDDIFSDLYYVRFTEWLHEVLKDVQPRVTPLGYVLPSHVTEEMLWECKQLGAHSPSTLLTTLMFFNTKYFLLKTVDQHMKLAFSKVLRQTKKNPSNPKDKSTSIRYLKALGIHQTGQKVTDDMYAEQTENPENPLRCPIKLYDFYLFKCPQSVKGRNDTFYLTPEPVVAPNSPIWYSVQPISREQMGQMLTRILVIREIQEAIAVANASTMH
UniProt O14818: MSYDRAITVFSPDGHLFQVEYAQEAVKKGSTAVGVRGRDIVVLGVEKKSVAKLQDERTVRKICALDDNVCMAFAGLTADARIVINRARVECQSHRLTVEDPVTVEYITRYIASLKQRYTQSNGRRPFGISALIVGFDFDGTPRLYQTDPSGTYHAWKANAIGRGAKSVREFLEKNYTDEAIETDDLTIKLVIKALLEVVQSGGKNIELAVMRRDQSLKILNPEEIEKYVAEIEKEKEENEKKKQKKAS
UniProt P32322: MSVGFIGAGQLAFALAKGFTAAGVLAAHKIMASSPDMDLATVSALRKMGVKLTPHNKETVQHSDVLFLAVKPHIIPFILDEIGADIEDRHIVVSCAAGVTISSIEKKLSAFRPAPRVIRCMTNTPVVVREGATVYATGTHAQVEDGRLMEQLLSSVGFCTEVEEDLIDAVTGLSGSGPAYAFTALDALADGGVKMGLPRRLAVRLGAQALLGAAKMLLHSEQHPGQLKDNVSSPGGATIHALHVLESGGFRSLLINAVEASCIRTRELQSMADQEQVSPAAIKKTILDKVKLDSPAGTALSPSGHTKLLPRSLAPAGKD
UniProt Q9NXS2: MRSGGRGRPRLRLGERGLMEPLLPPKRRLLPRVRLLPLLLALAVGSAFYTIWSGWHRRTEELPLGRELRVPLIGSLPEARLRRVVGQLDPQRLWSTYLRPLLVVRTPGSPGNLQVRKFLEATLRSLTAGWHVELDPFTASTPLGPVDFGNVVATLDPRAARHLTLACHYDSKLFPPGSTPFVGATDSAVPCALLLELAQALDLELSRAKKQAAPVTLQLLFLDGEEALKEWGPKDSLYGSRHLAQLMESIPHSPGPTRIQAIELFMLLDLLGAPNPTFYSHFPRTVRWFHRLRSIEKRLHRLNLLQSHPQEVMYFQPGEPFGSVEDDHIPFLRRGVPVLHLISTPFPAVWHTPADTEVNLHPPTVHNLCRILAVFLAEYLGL
UniProt Q9BT73: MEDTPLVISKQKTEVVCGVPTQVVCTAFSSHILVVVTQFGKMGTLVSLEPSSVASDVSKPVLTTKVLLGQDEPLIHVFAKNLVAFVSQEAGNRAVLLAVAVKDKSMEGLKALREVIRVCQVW
UniProt Q9BQI7: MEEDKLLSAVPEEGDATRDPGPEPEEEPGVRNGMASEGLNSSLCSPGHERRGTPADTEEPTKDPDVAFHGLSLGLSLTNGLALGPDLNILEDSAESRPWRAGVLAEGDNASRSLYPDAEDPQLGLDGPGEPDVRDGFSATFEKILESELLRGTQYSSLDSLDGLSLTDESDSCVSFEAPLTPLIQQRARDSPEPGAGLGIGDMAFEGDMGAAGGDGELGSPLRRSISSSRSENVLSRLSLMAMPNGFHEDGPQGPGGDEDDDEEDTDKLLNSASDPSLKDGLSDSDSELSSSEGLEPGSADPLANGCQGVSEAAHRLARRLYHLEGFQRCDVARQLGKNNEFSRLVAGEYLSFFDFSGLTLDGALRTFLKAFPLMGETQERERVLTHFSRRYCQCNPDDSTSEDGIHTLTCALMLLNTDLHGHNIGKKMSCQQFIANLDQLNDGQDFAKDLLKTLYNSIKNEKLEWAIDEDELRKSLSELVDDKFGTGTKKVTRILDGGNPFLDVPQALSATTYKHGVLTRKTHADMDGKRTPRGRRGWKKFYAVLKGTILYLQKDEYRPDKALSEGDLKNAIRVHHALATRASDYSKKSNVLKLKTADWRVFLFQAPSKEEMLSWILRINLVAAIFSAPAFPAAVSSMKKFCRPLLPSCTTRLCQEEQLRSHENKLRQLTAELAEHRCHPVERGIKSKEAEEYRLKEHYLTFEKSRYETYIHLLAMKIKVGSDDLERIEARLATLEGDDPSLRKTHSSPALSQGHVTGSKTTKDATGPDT
UniProt Q9H3S7: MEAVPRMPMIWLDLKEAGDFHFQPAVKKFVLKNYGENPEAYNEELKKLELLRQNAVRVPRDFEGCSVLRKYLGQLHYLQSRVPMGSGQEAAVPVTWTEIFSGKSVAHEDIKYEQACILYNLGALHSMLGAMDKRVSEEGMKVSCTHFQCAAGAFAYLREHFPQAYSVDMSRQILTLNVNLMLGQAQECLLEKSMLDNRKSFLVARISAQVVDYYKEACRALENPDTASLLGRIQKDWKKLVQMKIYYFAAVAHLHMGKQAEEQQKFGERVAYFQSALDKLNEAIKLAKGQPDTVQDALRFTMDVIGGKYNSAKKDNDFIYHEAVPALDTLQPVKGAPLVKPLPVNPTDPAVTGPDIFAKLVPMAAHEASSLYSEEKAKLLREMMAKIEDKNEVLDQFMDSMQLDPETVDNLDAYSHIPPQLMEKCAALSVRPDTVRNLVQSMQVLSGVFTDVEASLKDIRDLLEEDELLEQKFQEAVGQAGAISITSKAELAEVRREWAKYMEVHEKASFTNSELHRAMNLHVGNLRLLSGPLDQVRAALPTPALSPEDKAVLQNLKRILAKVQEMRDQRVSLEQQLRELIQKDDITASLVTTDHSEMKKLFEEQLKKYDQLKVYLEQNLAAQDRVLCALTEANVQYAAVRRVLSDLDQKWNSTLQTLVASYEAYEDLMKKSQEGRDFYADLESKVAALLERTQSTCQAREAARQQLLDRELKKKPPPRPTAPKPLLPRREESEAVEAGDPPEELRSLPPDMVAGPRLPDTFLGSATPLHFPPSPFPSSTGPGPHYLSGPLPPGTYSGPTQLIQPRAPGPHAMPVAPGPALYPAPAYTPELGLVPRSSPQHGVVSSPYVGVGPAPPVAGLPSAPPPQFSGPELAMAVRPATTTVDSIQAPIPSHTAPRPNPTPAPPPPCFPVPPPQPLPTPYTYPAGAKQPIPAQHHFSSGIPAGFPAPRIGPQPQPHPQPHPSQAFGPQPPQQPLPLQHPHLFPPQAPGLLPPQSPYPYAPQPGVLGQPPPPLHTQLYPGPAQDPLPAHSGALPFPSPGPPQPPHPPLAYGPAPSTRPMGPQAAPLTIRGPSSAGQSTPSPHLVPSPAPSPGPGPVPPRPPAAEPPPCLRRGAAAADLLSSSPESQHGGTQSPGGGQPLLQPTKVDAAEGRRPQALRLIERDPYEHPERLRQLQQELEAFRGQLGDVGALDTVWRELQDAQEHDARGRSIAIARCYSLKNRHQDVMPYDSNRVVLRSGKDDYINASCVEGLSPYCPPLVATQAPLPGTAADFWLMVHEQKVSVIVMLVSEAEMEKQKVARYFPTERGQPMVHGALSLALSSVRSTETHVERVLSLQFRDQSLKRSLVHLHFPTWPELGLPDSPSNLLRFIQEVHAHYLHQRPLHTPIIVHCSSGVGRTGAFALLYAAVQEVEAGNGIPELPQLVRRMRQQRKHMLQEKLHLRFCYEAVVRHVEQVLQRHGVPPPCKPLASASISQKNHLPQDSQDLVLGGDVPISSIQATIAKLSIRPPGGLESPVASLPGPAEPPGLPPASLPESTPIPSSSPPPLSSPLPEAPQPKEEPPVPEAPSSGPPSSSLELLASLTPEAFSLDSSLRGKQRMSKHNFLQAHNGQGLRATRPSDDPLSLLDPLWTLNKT
UniProt Q9ULZ3, whole entry, looked up: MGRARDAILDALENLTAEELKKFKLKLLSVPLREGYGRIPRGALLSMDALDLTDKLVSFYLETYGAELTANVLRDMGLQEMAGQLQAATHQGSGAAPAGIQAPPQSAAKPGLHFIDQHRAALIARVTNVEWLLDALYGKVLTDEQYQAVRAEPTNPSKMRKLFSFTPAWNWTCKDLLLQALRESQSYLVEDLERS
UniProt Q99436: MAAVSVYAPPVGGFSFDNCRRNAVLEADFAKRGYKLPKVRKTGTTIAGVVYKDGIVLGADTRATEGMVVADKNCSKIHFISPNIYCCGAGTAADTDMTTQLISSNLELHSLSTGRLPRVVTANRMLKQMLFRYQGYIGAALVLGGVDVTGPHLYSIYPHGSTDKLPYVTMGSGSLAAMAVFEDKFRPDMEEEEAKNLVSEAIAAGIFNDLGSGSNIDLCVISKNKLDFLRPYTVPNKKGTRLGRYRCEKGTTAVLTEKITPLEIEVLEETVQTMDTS
UniProt P18031: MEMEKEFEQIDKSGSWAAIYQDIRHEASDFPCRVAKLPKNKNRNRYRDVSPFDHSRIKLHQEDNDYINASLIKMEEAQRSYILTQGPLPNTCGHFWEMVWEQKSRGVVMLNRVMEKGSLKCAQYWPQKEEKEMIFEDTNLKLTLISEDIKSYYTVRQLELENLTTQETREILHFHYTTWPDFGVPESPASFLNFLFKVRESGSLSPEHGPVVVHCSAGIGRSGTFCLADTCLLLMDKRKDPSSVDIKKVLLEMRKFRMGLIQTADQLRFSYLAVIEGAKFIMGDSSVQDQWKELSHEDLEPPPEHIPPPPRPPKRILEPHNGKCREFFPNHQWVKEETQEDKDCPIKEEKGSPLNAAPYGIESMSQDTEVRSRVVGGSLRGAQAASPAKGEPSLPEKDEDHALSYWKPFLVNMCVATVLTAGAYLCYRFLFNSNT
UniProt Q14289, whole entry, looked up: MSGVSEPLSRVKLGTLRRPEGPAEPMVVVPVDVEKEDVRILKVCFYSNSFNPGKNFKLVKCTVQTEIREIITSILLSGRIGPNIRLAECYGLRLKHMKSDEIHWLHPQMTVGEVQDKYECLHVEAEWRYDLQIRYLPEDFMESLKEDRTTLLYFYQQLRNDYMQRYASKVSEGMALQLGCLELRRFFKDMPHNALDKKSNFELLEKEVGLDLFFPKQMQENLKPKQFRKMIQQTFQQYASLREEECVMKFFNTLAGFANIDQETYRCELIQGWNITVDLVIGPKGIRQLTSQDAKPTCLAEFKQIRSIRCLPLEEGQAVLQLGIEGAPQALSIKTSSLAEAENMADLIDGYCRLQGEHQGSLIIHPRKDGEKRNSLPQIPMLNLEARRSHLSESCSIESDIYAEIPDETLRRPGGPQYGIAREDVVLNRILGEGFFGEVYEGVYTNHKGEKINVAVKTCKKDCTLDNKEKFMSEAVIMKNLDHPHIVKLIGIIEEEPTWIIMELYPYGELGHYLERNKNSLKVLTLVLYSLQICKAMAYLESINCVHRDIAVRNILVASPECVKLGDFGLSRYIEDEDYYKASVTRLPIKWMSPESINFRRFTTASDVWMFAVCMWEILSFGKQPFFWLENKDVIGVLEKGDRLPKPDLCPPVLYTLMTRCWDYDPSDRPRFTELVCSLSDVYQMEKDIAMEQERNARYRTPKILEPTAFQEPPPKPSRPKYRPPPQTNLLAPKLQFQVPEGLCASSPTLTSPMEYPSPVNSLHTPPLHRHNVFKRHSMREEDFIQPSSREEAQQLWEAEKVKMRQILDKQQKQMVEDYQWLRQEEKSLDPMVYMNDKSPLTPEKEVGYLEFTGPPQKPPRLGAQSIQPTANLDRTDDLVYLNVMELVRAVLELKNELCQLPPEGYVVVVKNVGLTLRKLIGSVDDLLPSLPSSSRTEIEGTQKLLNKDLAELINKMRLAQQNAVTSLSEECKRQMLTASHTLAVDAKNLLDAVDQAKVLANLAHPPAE
UniProt Q96I23: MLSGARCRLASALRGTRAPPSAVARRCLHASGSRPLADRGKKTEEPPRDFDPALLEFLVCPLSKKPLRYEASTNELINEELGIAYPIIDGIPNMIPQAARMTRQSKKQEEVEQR
UniProt P28070, whole entry, looked up: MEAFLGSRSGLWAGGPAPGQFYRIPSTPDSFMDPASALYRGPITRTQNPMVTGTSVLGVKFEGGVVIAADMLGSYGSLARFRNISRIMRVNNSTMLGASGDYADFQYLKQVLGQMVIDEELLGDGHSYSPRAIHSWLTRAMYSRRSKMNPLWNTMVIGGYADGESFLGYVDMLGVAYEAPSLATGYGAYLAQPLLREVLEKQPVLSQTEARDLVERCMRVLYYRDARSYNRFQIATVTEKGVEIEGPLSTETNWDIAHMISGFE

Each target was assayed with NC(=O)Nc1cc(-c2cccc(F)c2)sc1C(=O)N[C@H]1CCCNC1 (assay: log2 fold change, soluble protein after heating vs DMSO (PISA); higher = thermal stabilisation; K562 cells, 10 uM, 30 min; active = over 0.2 and 3.5 SD of the protein, either way, in both replicates (recomputed)).
Summary of the method: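 Aliquots of K562 cells (2×10^6 cells/mL) treated with 10 μM compound for 30 min were heated for 3 min over 48°C-58°C. After pooling and extraction in PBS with 0.5% NP-40 at 4°C, soluble protein from a 21,000xg, 90 min spin was quantified by TMTpro 16plex LC-MS/MS with channel sums equalised. Thermal stability is expressed against control samples, from duplicates, as a log2 fold change.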

log2 fold change, inactive:
PSMD4 (UniProt Q5VWC4) 0.04
QRICH1 (UniProt Q2TAL8) -0.043
PSMD3 (UniProt O43242) -0.027
PSMA7 isoform 2 (UniProt O14818) -0.401
PYCR1 isoform 3 (UniProt P32322) 0.045
PTMA (UniProt P06454) 0.279
QPCTL (UniProt Q9NXS2) 0
PSMG3 (UniProt Q9BT73) -0.011
PSD2 (UniProt Q9BQI7) 0.058
PTPN23 (UniProt Q9H3S7) -0.039
PSMB2, A0A087WVV1 0.18
PSMB10 (UniProt P40306) 0.003
PYCARD (UniProt Q9ULZ3) -0.004
PSMB7 (UniProt Q99436) -0.007
PTPMT1 (UniProt Q8WUK0) -0.087
PTPN1 (UniProt P18031) -0.075
PTK2B (UniProt Q14289) 0.076
PSMA3 (UniProt P25788) 0.03
PTPRN2 isoform 3 (UniProt Q92932) -0.452
PYURF (UniProt Q96I23) 0.299
PYROXD1 (UniProt Q8WU10) 0
PSMB4 (UniProt P28070) 0.029
QSOX1 (UniProt O00391) 0.02

2 neighbouring entries already listed, quoted:
log2 fold change, inactive:
PYROXD1 (UniProt Q8WU10) 0
PSMB4 (UniProt P28070) 0.029
